The values that follow come from article PMC6745501, “Plant photoreceptors and their signaling components compete for COP1 binding via VP peptide motifs” (The EMBO Journal, 2019).

For the data set, the system named is COP1 WD40 domain. Nature of the data set: Grating-coupled interferometry (GCI) binding kinetics versus the COP1 WD40 domain. To be noted: ligand COP1 (2000 pg/mm2), analyte in the absence of UV-B, highest concentration 2 μM, 1:1 binding model. Further details: species or system Arabidopsis. How it is done: For CRY2 activation, proteins were diluted to their final assay concentrations (as indicated in the figure legends) in Eppendorf tubes and exposed to 10 min of fluorescent light on ice.
The Creoptix WAVE system (Creoptix AG), a label‐free surface biosensor, was used to perform GCI experiments. All experiments were performed on 2PCH or 4PCH WAVEchips (quasi‐planar polycarboxylate surface; Creoptix AG). After a borate buffer conditioning (100 mM sodium borate pH 9.0, 1 M NaCl; Xantec), COP1 (ligand) was immobilized on the chip surface using standard amine‐coupling: 7 min activation [1:1 mix of 400 mM N‐(3‐dimethylaminopropyl)‐N′‐ethylcarbodiimide hydrochloride and 100 mM N‐hydroxysuccinimide (both Xantec)], injection of COP1 (10 μg/ml) in 10 mM sodium acetate pH 5.0 (Sigma) until the desired density was reached, and final quenching with 1 M ethanolamine pH 8.0 for 7 min (Xantec). […] Blank injections were used for double referencing and a dimethyl sulfoxide (DMSO) calibration curve for bulk correction. Analysis and correction of the obtained data were performed using the Creoptix WAVEcontrol software (applied corrections: X and Y offset; DMSO calibration; double referencing), and a one‐to‐one binding model or a heterogenous ligand model with bulk correction was used to fit all experiments.

For the substance “UVR8: recombinant full-length Arabidopsis UV-B photoreceptor UVR8 expressed in insect cells”, the “Rmax, - UV-B” value is listed as 9.196 pg/mm2.
